Reference: patent publication EP1884568A1, “METHOD FOR IDENTIFICATION OF COMPOUND HAVING ANTIDEPRESSANT EFFECT” (Daiichi Sankyo Company, Limited, priority 2005, dated 2008)
Part of at least one peptide drawing is inferred or uncertain, most often the ends.

What was measured:
[1] = test system: CHO-K1 cell line; assay: Change in intracellular Ca2+ concentration, non-transfected CHO-K1 host cell (negative control); type: cell-based, Chinese hamster; conditions: for increase in intracellular Ca^2+ concentration: CHO-K1 cell line not transfected (Example 5), peptide final concentration 1nM; for change in intracellular calcium concentration: CCK-8S
[2] = CCK-8S administration to diabetes patients (Bo, A. et al., 2000); cited from earlier work
[3] = test system: protein encoded by ph01207; assay: Change in intracellular Ca2+ concentration, HA-ph01207#10-6 cell line (FLIPR Calcium 3 / FLEXstation); type: cell-based, human; conditions: 1 nM CCK-8S vs 10 µM A23187
[4] = test system: variant 3; assay: Change in intracellular Ca2+ concentration, variant 3 gene stably expressing cell line; type: cell-based, human; conditions: CCK-8S final concentration 10 pM to 1 µM, 1 nM shown in Fig. 7-A
[5] = test system: hk01941; assay: Change in intracellular Ca2+ concentration, hk01941 stably expressing cell line; type: cell-based, human; conditions: CCK-8S final concentration 10 pM 1 µM, 1 nM shown in Fig. 6-A
[6] = test system: 7tmHR; assay: Change in intracellular Ca2+ concentration, 7tmHR stably expressing cell line; type: cell-based, human; conditions: CCK-8S final concentration 10 pM 1 µM, 1 nM shown in Fig. 5-A

| SMILES | increase in intracellular Ca^2+ concentration [1] | insulin amounts [2] | postcibal glucose amounts [2] | level of increase in the intracellular Ca^2+ concentration compared with that caused by A23187 [3] | change in intracellular calcium concentration ([1]; host cell not transfected with variant 3 expression vector (Example 9)) | change in intracellular calcium concentration ([1]; host cell transfected with neither 7tmHR nor hk01941 expression vector (Example 8)) | increase in intracellular calcium (Ca^2+) concentration [4] | increase in intracellular calcium (Ca^2+) concentration [5] | increase in intracellular calcium (Ca^2+) concentration [6] |
| --- | --- | --- | --- | --- | --- | --- | --- | --- | --- |
| CSCC[C@H](NC(=O)[C@@H](N)Cc1c[nH]c2ccccc12)C(=O)N[C@@H](CC(=O)O)C(=O)N[C@@H](Cc1ccccc1)C(N)=O [CCK-4] | no increase |  |  |  |  |  |  |  |  |
| CSCC[C@H](NC(=O)[C@H](Cc1ccc(O)cc1)NC(=O)[C@@H](N)CC(=O)O)C(=O)NCC(=O)N[C@@H](Cc1c[nH]c2ccccc12)C(=O)N[C@@H](CCSC)C(=O)N[C@@H](CC(=O)O)C(=O)N[C@@H](Cc1ccccc1)C(N)=O [CCK-8NS, CCK-8 Nonsulfated form] | no increase |  |  |  |  |  |  |  |  |
| CSCC[C@H](NC(=O)[C@H](Cc1ccc(OS(=O)(=O)O)cc1)NC(=O)[C@@H](N)CC(=O)O)C(=O)NCC(=O)N[C@@H](Cc1c[nH]c2ccccc12)C(=O)N[C@@H](CCSC)C(=O)N[C@@H](CC(=O)O)C(=O)N[C@@H](Cc1ccccc1)C(N)=O [CCK-8S, cholecystokinin octapeptide sulfated form] | no increase | promotion of increase | suppression of increase | roughly equal | no change | no change | An increase | An increase | An increase |
